The text below walks through data of paper PMC11290353.

No constants are given. Whether binding was seen depends on the method and setting. Binding seen in cells or lysates may run through a third protein. Binding calls can cover weak binding; strength is not graded here. Where a sequence is shown, tags or fusion partners need not be part of it.

For this experiment, the target named is GFP-CMTR1ΔWW (human). Description: co-IP; GFP-CMTR1 proteins co-expressed with HA-CMTR1-WW or HA-CMTR1-GT-WW, immunoprecipitated using GFP nanobodies; HA-tagged proteins and RNA Pol II S5P detected by western blot.

Turning to RTVNEPWTMGFSKSFKKKFFYNKKTKDSTFDLPAD (domain or fragment, UniProt Q8N1G2 752-786) [HA-CMTR1-WW], the binding entry is recorded as “binds”.
